Data as given in PubChem BioAssay AID1671195 (Yale University, 2021)
Here is an unselected part of about 22,000 deposited reagents. About 1,510 of all reagents (6.9%) count as active. 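Active includes knockdowns raising or lowering LDL uptake; positive z-scores mean more uptake, negative mean less.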 Reagents against one gene are numbered here.

Test: 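Genes whose knockdown alters LDL uptake in liver cancer cells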 (primary screen)
Cell system: human Huh7 hepatoma cells
Reagent: siRNA pool against human genes, 18 nM
Duration: about 2 to 2.5 days of knockdown, then 8 h LDL uptake
Challenge: DiI-labelled LDL at 30 µg/ml for 8 h, in lipoprotein-deficient serum medium
Measurement: 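Fluorescent LDL signal imaged in cells, scaled to the plate median, robust z-score for each replicate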
Scale: robust z-score: higher = more LDL uptake after knockdown
Call rule: 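Active when two or more replicates show a robust z-score above 2 or below -2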

| gene | pool no. | robust z-score, replicate 1 | robust z-score, replicate 2 | robust z-score, replicate 3 | activity call |
| --- | --- | --- | --- | --- | --- |
| AFMID | 1 | 0.723 | 1.02 | 1.08 | inactive |
| LOC100233156 | 1 | 0.94 | 0.461 | 0.715 | inactive |
| KCNN2 | 1 | -1.31 | -1.29 | -1.1 | inactive |
| LOC400843 (retired record) | 1 | -0.414 | -0.677 | -0.376 | inactive |
| SLC44A1 | 1 | 1.82 | 0.865 | 2.23 | inactive |
| RFLNB | 1 | -0.762 | -0.489 | -0.478 | inactive |
| TFAP2D | 1 | -0.844 | -0.599 | -0.754 | inactive |
| CREB5 | 1 | 3.55 | 4.02 | 3.3 | active |
| CREB5 | 2 | 0.573 | 2.08 | 1.59 | inactive |
| SPAG7 | 1 | 0.945 | 0.244 | 0.458 | inactive |
| CRNKL1 | 1 | -0.538 | 0.431 | 1.12 | inactive |
| DNAJC25 | 1 | -2.28 | -2.2 | -1.94 | active |
| HCRTR1 | 1 | 0.0657 | -0.268 | 0.114 | inactive |
| CASK | 1 | 0.905 | -0.0362 | 0.492 | inactive |
| NAP1L4 | 1 | -0.813 | -0.805 | -0.59 | inactive |
| OR4N4 | 1 | -0.716 | -0.368 | -0.979 | inactive |
| CCDC18 | 1 | 0.898 | 0.773 | 0.624 | inactive |
| GPHA2 | 1 | 0.0369 | 0.0281 | 0.356 | inactive |
| HIP1 | 1 | -0.42 | -2 | -1.04 | inactive |
| GRINA | 1 | -0.311 | -0.471 | 0.334 | inactive |
| SERINC5 | 1 | 0.569 | 0.763 | 0.227 | inactive |
| TSEN34 | 1 | 0.569 | 0.549 | 1.24 | inactive |
| ZNF20 | 1 | -0.214 | -0.363 | -0.196 | inactive |
| SOX1 | 1 | -0.131 | -0.15 | -0.306 | inactive |

11 entries from above, set out differently:
gene,pool no.,"robust z-score, replicate 1","robust z-score, replicate 2","robust z-score, replicate 3",activity call
CREB5,2,0.573,2.08,1.59,inactive
SPAG7,1,0.945,0.244,0.458,inactive
CRNKL1,1,-0.538,0.431,1.12,inactive
DNAJC25,1,-2.28,-2.2,-1.94,active
HCRTR1,1,0.0657,-0.268,0.114,inactive
CASK,1,0.905,-0.0362,0.492,inactive
NAP1L4,1,-0.813,-0.805,-0.59,inactive
OR4N4,1,-0.716,-0.368,-0.979,inactive
CCDC18,1,0.898,0.773,0.624,inactive
GPHA2,1,0.0369,0.0281,0.356,inactive
HIP1,1,-0.42,-2,-1.04,inactive

Additional results follow:
| gene | pool no. | robust z-score, replicate 1 | robust z-score, replicate 2 | robust z-score, replicate 3 | activity call |
| --- | --- | --- | --- | --- | --- |
| PDX1 | 1 | 0.316 | 0.437 | 0.335 | inactive |
| NPIPB11 | 1 | -1.25 | -1.54 | -1.5 | inactive |
| SPDYE4 | 1 | 0.808 | 1.2 | 0.955 | inactive |
| TXNL1 | 1 | 1.69 | 1.29 | 0.612 | inactive |
| LOC440033 (retired record) | 1 | 1.32 | 1.94 | 1.17 | inactive |
| ZNF462 | 1 | -0.161 | -0.0596 | -0.398 | inactive |
| PRDX5 | 1 | -0.798 | -0.71 | -0.887 | inactive |
| LOC440282 (retired record) | 1 | -1.76 | -1.75 | -1.8 | inactive |
| POLR3K | 1 | 2.17 | 1.57 | 1.09 | inactive |
| VPS13D | 1 | -1.3 | -0.782 | 0.0362 | inactive |
| ATP5PO | 1 | -0.141 | 0.0172 | -0.1 | inactive |
| TCEAL7 | 1 | 1.22 | 0.784 | 1.19 | inactive |
| ZC2HC1C | 1 | 1.25 | 0.599 | 0.78 | inactive |
| INHA | 1 | -0.0371 | -0.949 | -1.16 | inactive |
| IRF1 | 1 | -0.0611 | -0.0997 | -0.292 | inactive |
| RGL4 | 1 | -0.453 | -0.169 | -0.311 | inactive |
| SFT2D1 | 1 | 0.0513 | 1.15 | 0.662 | inactive |
| THAP8 | 1 | -0.445 | 0.0669 | -0.333 | inactive |
| ACTR1B | 1 | -1.17 | -1.34 | -1.14 | inactive |
| NF1P8 | 1 | -0.00143 | -0.636 | -0.311 | inactive |
| DCHS2 | 1 | -0.185 | -0.329 | 0.0266 | inactive |
| STX6 | 1 | 0.486 | 0.187 | 0.776 | inactive |
| FOXN3-AS1 | 1 | -0.309 | -0.573 | -0.33 | inactive |
| LRRTM2 | 1 | 0.369 | 1.38 | 2.73 | inactive |
| INSL4 | 1 | -0.76 | -1.93 | -1.03 | inactive |
| PDZRN4 | 1 | -0.744 | 2.58 | 0.557 | inactive |
| PRR22 | 1 | 0.913 | 0.843 | 0.516 | inactive |
| EIF2B5 | 1 | 0.823 | -0.0111 | 0.0954 | inactive |
| TBX22 | 1 | -0.37 | -0.284 | -0.215 | inactive |
| CH25H | 1 | 1.83 | 0.442 | 1.6 | inactive |
| RNASE13 | 1 | 1.15 | 1.44 | 1.81 | inactive |
| ENDOG | 1 | -0.843 | -0.678 | -0.834 | inactive |
| PCDHB16 | 1 | -1.42 | -1.17 | -1.27 | inactive |
| DBF4B | 1 | -1.79 | -2.28 | -2.12 | active |
| UTS2R | 1 | 0.559 | 0.275 | 0.639 | inactive |
| GABBR1 | 1 | -0.161 | -0.809 | -0.836 | inactive |
| MS4A3 | 1 | 4.03 | 3.76 | 3.94 | active |
| CST1 | 1 | -0.0805 | -0.282 | -0.653 | inactive |
| MMP1 | 1 | -0.97 | -0.0926 | -0.661 | inactive |
| TACC2 | 1 | -0.0372 | -0.609 | -0.968 | inactive |
| WSB2 | 1 | -0.739 | 0.801 | -1.32 | inactive |
| PADI3 | 1 | -0.96 | -0.352 | -0.768 | inactive |
| MYDGF | 1 | 0.563 | 1.25 | 0.0223 | inactive |
| INSC | 1 | 0.287 | 0.313 | 0.513 | inactive |
